Measured values published in PubChem BioAssay AID1487 (National Center for Advancing Translational Sciences (NCATS), 2009).
The other results are listed elsewhere or left out. Shown are side measurements of this screen, not its main read-out; they come without a call. Compounds called inactive in the main read-out are mostly missing here. Potencies come from curve fits of mixed quality, noted in brackets.

Experiment: qHTS Assay for Modulators of Lamin A Splicing
Settings: HeLa LMNA splicing GFP/RFP minigene ratio, 48 h
Method in brief: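 S3 HeLa cells stably expressing lamin A-EGFP splicing minigene plus DsRed2, 600 cells/well, 48 h compound exposure at 37C. Laser-scanning cytometry; analysed as GFP (500-530 nm)/RFP (575-640 nm) total intensity ratio; 0.5% DMSO vehicle.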

[1] = measured here: RFP viability control channel
[2] = measured here: GFP splicing reporter channel

Structure (SMILES)	AC50 [1]	AC50 [2]
O=C(c1ccco1)N1CCN(c2nc3c(F)cc(F)cc3s2)CC1	35.5 µM [falling, partial curve]	
CC1(C)CCCN(C(=O)c2ccc3c(c2NCCO)C(=O)c2ccccc2C3=O)C1	25.1 µM [rising, single point]	17.8 µM [rising, partial curve]
CCN(CC)S(=O)(=O)c1ccc(NC2CCCc3ccccc32)nc1 (stereo unspecified)	20 µM [rising, single point]	
Nc1ccc(S(=O)(=O)NC(=O)c2ccccc2)cc1		1.41 µM [falling, partial curve, poor fit]
CCC(C)NC(=O)C1(C)CCC(=O)N1Cc1ccccc1OC (stereo unspecified)	3.16 µM [falling, single point]	
COCCOC(=O)C1=C(C)NC(=O)NC1c1ccc(-c2ccc(F)cc2)o1 (stereo unspecified)	7.94 µM [falling, partial curve, poor fit]	
Cc1ccc(C(C[N+](=O)[O-])c2c(C)[nH]n(-c3ccccc3)c2=O)cc1 (stereo unspecified)		35.5 µM [rising, single point]
CN1CCNC(=O)C1CC(=O)NCC1(c2ccccc2)CCCCC1 (stereo unspecified)		0.891 µM [rising, partial curve]
CC(C)(CNC(=O)/C=C/c1ccc(F)cc1)CNC(=O)/C=C/c1ccc(F)cc1	12.6 µM [rising, single point]	
CCOc1ccc(NC(=S)N2CCC(C(O)(c3ccccc3)c3ccccc3)CC2)cc1	35.5 µM [rising, single point]	
CCCC[C@@]1(C2CCCC2)Cc2cc(OCC(=O)O)c(Cl)c(Cl)c2C1=O	12.6 µM [falling, partial curve]	17.8 µM [falling, partial curve]
COC(=O)Nc1ccc(S(=O)(=O)N2CCC(Cc3ccccc3)CC2)cc1	25.1 µM [rising, single point]	1 µM [rising, partial curve, poor fit]
CC1=C(C(=O)OCCc2ccccc2)C(c2ccsc2)NC(=O)N1C (stereo unspecified)	12.6 µM [rising, partial curve]	5.62 µM [rising, partial curve]
CCC1=NN(C(=O)Cc2ccc([N+](=O)[O-])cc2)C(O)(c2ccc(Br)cc2)C1 (stereo unspecified)	35.5 µM [rising, single point]	28.2 µM [rising, single point]
CCC(Sc1nncn1C)C(=O)Nc1nnc(-c2ccccc2Cl)s1 (stereo unspecified)	35.5 µM [rising, single point]	
O=C(Nc1ccc2c(c1)OCCO2)C1CCN(c2nnnn2-c2ccccc2)CC1	5.62 µM [rising, single point]	
c1ccc2c(NCCCN3CCOCC3)c3ccccc3nc2c1	20 µM [falling, partial curve, poor fit]	11.2 µM [falling, single point]
O=C(/C=C/c1cccc([N+](=O)[O-])c1)c1ccc2c(c1)OCCO2	20 µM [rising, partial curve, poor fit]	
Cc1cc2nnc(SCC(=O)Nc3cc(S(=O)(=O)N4CCOCC4)ccc3Cl)n2c2ccccc12	12.6 µM [rising, single point]	12.6 µM [rising, single point]
CCc1ccc(NC(=O)COC(=O)CCCC2=NS(=O)(=O)c3ccccc3N2)cc1	0.891 µM [falling, full curve, poor fit]	
CC(=O)c1c(C)[nH]c(C(=O)COC(=O)c2cc(S(=O)(=O)N(C)c3ccccc3)ccc2Cl)c1C	5.01 µM [rising, partial curve, poor fit]	1.41 µM [rising, full curve, poor fit]
CN(c1ccc(S(=O)(=O)N2CCOCC2)cn1)C1CCCCC1	17.8 µM [rising, partial curve]	17.8 µM [rising, partial curve]
O=C(N/N=C\c1ccc(-c2ccccc2[N+](=O)[O-])o1)C1COc2ccccc2O1 (stereo unspecified)	35.5 µM [rising, partial curve, poor fit]	
Cc1nnsc1C(=O)N/N=C/c1cccc(C(F)(F)F)c1		0.0631 µM [falling, full curve]
CCC1CCCCN1CCCNC(=O)c1cc2c(=O)[nH]c3ccccc3c2n1C (stereo unspecified)	0.02 µM [falling, full curve, poor fit]	0.02 µM [falling, full curve, poor fit]
COc1ccc(-c2nc3cnc(Oc4ccccc4)nc3n(CCC#N)c2=O)cc1	5.62 µM [falling, partial curve]	3.98 µM [falling, full curve]
CCCCNc1cc(NC(C)=O)cc2cc(OC)c(OC)cc12		1.26 µM [falling, single point]

Structure (SMILES)	AC50 [1]	AC50 [2]
O=C(N=Nc1c(O)n(Cc2ccccc2)c2ccccc12)c1cc2ccccc2cc1O	3.55 µM [rising, full curve]	3.98 µM [rising, partial curve]
CCS(=O)(=O)Nc1ccc(-c2cn3c(C)csc3n2)cc1		1.41 µM [rising, full curve, poor fit]
Cc1ccc(C2=NN=C(NC(=O)CSc3nc(C)cc(C)n3)SC2)cc1		12.6 µM [falling, partial curve]
COc1ccc(Oc2ncc3nc(-c4cccc(C#N)c4)c(=O)n(CCC#N)c3n2)cc1		15.8 µM [falling, single point]
Cc1noc(C)c1S(=O)(=O)Nc1ccc(C(=O)N2CCN(c3ccc(Cl)cc3)CC2)cc1	8.91 µM [rising, partial curve]	3.98 µM [rising, full curve]
O=C(CCNC(=O)Cn1ccc2ccccc2c1=O)NCC1CCCC1c1ccccc1 (stereo unspecified)	11.2 µM [rising, partial curve, poor fit]	28.2 µM [rising, partial curve, poor fit]
Cc1cccc(C)c1NC(=O)N1CC=C(n2c(=O)[nH]c3ccccc32)CC1	6.31 µM [falling, single point]	3.98 µM [falling, full curve, poor fit]
CN(C)Cc1ccccc1-c1nc(N(C)C)c2ccccc2n1		35.5 µM [falling, single point]
CN=c1nc(-c2ccccc2)n(-c2ccccc2)s1	15.8 µM [falling, partial curve]	35.5 µM [falling, partial curve, poor fit]
COc1ccc(Cl)cc1NC(=O)CSc1nnc(Cc2cccn2C)n1-c1ccc(F)cc1	10 µM [rising, partial curve, poor fit]	
COc1ccc(Cl)cc1NC(=O)C(C)N(C)Cc1ccc(C(F)(F)F)cc1 (stereo unspecified)	35.5 µM [rising, single point]	
CC1CCc2nc(NC(=O)CN3CCN(c4ccccc4)CC3)sc2C1 (stereo unspecified)	22.4 µM [rising, single point]	
O=C(c1cccc(C(=O)N2CCN(c3ccccc3)CC2)c1)N1CCN(c2ccccc2)CC1	14.1 µM [rising, single point]	
CC1(c2ccccc2)NC(=O)N(Cc2ccc([N+](=O)[O-])cc2)C1=O (stereo unspecified)	7.94 µM [rising, partial curve, poor fit]	3.55 µM [rising, single point]
NN/C(=C\[N+](=O)[O-])Nc1ccc(Cl)cc1		35.5 µM [falling, single point]
Cc1ccc(C(C(=O)NCc2ccccc2)N(Cc2cccs2)C(=O)c2ccc3c(c2)OCCO3)cc1 (stereo unspecified)	20 µM [rising, partial curve, poor fit]	35.5 µM [rising, single point]
CC(Sc1cccc[n+]1[O-])C(=O)Nc1cccc(S(=O)(=O)N2CCOCC2)c1 (stereo unspecified)	0.0562 µM [rising, full curve, poor fit]	
N#CCCn1cc(/C=N/NC(N)=S)c(-c2ccc(Br)cc2)n1	17.8 µM [falling, partial curve]	
O=C(c1ccc(S(=O)(=O)c2ccccc2)cc1)N1CCCCCC1	11.2 µM [rising, single point]	
CC(C)OC(=O)c1c(NC(=O)CCn2nnc3ccccc32)sc2c1CCCC2	22.4 µM [rising, single point]	15.8 µM [rising, single point]
c1csc(C2C3=C(Nc4ncnn42)c2ccccc2OC3)c1 (stereo unspecified)	5.01 µM [rising, partial curve]	
O=C(CSc1nnc(CN2CCCCCC2=O)n1-c1ccccn1)NCC(F)(F)F	10 µM [falling, partial curve, poor fit]	
C=CCOC(=O)C1=C(C)NC(SCC(=O)Nc2ccccc2)=C(C#N)C1c1ccco1 (stereo unspecified)	31.6 µM [rising, single point]	35.5 µM [rising, single point]
CCC(=C(CC)c1ccc(O)cc1)c1ccc(O)cc1	7.94 µM [falling, partial curve]	7.94 µM [falling, partial curve]
CC(C)C(NC(=O)c1ccccc1F)C(=O)OCC(=O)c1ccc(F)cc1 (stereo unspecified)		2.51 µM [rising, full curve]
C/C(=N\NC(=O)CN(c1ccccc1)S(C)(=O)=O)c1ccccc1O		0.0224 µM [falling, full curve, poor fit]
Cc1cc2cc(CNC(=O)c3ccc4c(c3)OCO4)ccc2[nH]1	31.6 µM [rising, single point]	35.5 µM [rising, single point]

Three structures already listed, ordered by count of non-hydrogen atoms, rising.
Structure (SMILES)	AC50 [1]	AC50 [2]
CC1(c2ccccc2)NC(=O)N(Cc2ccc([N+](=O)[O-])cc2)C1=O (stereo unspecified)	7.94 µM [rising, partial curve, poor fit]	3.55 µM [rising, single point]
CC1=C(C(=O)OCCc2ccccc2)C(c2ccsc2)NC(=O)N1C (stereo unspecified)	12.6 µM [rising, partial curve]	5.62 µM [rising, partial curve]
CC(C)C(NC(=O)c1ccccc1F)C(=O)OCC(=O)c1ccc(F)cc1 (stereo unspecified)		2.51 µM [rising, full curve]
